The values that follow come from publication PMC9943668.

Chains of the proteins cited; added tags and fusions are not shown.
UniProt Q13227: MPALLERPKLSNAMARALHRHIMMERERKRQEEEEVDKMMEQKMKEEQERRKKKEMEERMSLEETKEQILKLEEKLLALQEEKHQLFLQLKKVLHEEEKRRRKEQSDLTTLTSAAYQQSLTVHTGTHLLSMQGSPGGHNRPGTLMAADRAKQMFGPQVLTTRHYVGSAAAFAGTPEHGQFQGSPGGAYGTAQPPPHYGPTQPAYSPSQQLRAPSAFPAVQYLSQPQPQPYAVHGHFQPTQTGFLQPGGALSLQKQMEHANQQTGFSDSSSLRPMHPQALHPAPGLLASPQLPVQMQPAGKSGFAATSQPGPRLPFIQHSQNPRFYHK
UniProt P05412: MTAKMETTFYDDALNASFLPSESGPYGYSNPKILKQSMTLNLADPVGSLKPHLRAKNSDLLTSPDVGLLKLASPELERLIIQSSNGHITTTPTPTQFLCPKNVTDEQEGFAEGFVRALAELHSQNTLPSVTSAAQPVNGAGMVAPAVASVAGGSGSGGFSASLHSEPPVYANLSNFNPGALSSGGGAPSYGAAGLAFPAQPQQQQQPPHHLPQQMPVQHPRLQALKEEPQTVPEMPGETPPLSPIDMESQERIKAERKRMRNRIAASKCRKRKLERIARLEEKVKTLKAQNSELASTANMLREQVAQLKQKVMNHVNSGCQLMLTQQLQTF
UniProt O75376: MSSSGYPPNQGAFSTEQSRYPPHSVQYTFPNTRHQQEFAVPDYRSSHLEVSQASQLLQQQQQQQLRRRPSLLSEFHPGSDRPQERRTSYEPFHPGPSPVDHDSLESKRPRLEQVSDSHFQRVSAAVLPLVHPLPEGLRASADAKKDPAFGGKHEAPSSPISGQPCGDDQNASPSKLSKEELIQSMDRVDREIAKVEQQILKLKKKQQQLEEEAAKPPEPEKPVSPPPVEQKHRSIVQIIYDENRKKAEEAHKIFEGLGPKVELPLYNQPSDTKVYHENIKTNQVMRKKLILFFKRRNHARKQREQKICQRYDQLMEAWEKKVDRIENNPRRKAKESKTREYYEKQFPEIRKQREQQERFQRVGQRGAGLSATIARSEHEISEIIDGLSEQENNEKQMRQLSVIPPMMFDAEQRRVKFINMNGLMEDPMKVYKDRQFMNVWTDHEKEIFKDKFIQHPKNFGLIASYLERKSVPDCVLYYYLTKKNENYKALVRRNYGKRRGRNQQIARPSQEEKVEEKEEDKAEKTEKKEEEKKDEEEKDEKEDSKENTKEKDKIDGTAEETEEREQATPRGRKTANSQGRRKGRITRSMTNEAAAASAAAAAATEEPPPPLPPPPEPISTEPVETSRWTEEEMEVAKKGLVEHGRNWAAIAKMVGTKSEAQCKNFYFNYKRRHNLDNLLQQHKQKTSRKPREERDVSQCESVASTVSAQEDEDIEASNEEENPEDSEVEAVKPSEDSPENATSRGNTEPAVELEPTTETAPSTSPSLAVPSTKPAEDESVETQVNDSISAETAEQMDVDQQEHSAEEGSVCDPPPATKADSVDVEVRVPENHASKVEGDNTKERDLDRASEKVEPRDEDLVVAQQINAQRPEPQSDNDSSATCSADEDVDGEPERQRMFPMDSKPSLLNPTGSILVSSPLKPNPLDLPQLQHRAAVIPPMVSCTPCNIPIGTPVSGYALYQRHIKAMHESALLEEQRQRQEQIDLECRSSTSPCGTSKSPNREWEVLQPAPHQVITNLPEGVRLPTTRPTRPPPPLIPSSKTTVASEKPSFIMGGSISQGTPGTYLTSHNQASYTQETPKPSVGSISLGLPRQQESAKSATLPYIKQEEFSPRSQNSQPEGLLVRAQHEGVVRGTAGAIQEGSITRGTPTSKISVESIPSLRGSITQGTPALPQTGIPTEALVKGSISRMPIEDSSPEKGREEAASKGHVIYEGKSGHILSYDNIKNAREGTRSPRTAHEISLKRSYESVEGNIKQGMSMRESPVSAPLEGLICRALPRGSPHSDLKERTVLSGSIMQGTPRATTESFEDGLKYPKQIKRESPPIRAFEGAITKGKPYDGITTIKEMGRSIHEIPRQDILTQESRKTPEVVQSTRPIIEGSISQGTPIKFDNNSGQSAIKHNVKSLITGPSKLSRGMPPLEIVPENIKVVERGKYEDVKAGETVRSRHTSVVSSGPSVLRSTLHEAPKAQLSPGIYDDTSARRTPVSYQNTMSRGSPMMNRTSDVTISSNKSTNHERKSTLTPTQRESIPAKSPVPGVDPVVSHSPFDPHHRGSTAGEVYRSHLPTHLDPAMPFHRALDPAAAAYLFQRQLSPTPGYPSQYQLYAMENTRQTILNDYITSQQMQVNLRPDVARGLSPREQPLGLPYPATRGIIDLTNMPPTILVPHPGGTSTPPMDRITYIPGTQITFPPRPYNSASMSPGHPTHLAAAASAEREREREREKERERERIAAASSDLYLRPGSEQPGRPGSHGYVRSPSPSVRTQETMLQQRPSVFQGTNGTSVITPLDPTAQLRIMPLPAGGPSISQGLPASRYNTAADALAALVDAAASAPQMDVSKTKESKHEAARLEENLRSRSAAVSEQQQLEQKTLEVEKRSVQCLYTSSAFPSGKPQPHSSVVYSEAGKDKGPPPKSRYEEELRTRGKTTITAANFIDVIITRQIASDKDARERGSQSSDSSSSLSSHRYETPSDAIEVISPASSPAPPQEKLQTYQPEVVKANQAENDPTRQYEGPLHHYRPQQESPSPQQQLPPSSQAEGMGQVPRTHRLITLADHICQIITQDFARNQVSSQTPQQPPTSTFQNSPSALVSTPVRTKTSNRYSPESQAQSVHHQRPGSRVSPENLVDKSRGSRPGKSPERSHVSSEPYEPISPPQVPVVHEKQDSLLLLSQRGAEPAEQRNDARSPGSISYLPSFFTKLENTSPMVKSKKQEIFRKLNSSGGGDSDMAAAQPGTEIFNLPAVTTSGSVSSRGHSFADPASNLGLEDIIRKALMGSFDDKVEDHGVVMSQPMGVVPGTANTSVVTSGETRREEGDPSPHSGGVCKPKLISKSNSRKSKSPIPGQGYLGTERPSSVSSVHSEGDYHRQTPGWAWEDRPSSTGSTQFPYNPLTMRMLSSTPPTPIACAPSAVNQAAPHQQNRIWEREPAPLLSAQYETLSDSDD

No constants are given. Whether binding was seen depends on the method and setting. Binding seen in cells or lysates may run through a third protein. Some results given as binding are weak or reduced against the parent protein; the word gives no strength. Where a sequence is shown, tags or fusion partners need not be part of it.

The target in this assay is HA-GPS2 (G protein pathway suppressor 2) (UniProt Q13227). As to the kind of experiment: co-IP; HEK293 cells co-transfected with HA-GPS2 or HA-KDM1A and FLAG-tagged TFs/coregulators, lysed after 48 h; lysate incubated with anti-HA or anti-FLAG on protein A magnetic beads for 3 h at 4°C; western blot with anti-FLAG or anti-HA.

On to “FLAG-tagged JUN (from UniProt P05412 1-331)”, for which the binding entry is “binds”.
For the molecule “FLAG-tagged NCOR (nuclear receptor corepressor 1) (from UniProt O75376 1-2440)”, the binding entry was “binds”.

B1: FLAG-tagged JUNB (protein, UniProt P17275 1-347)
chain: MCTKMEQPFYHDDSYTATGYGRAPGGLSLHDYKLLKPSLAVNLADPYRSLKAPGARGPGPEGGGGGSYFSGQGSDTGASLKLASSELERLIVPNSNGVITTTPTPPGQYFYPRGGGSGGGAGGAGGGVTEEQEGFADGFVKALDDLHKMNHVTPPNVSLGATGGPPAGPGGVYAGPEPPPVYTNLSSYSPASASSGGAGAAVGTGSSYPTTTISYLPHAPPFAGGHPAQLGLGRGASTFKEEPQTVPEARSRDATPPVSPINMEDQERIKVERKRLRNRLAATKCRKRKLERIARLEDKVKTLKAENAGLSSTAGLLREQVAQLKQKVMTHVSNGCQLLLGVKGHAF
Consider B1, for which the binding result is recorded as “binds”.
